According to article PMC7862700:
The list shows a part of the results, in another mix than the full data. At the low end of the ranking the order means little.

Each sequence was assayed against T1, EHF (UniProt Q9NZC4) (assay: DAPPL (digital affinity profiling via proximity ligation, sequencing)). Details: 10 mM Tris-HCl pH 7.5, 50 mM NaCl, 1 mM DTT, 4% glycerol, room temperature, 30 min; GST-TFs on glutathione beads, 16-mer random dsDNA library, 0.1% …; high values mean tight binding; double strand, one strand shown; scale: fold enrichment (6-mer frequency, TF over GST control).
T1 sequence: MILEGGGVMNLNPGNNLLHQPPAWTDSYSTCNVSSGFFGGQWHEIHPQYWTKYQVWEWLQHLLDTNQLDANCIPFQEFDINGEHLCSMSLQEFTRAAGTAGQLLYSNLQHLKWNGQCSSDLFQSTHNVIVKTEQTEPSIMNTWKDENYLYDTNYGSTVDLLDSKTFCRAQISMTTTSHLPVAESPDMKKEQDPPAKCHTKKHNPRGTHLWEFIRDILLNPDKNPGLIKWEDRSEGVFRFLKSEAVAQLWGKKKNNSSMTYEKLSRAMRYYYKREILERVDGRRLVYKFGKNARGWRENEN

Sequence	binding signal
CAACAT	1.23
ACACGA	0.976
TTGCGT	1.01
TAGTAA	1.03
TCTTAA	1.09
ACGTTC	1.3
TTCAGC	1.25
AGGAAA	1.63
CCGAAG	1.03
GGAACA	1.12
GACCTC	1.31
TGCGCG	1.16
CCGCCC	1.29
ACTTCC	8.81
GCACCC	1.01
TCCCTC	1.48
AGGTAT	0.978
AAACGG	1.26
TTCAGT	1.04

Single entries from the list:
GACCTC | binding signal: 1.31
CCGAAG | binding signal: 1.03

Additional results follow:

Sequence	binding signal
GTATAT	1.2
CCTCTA	1.31
CGTTCG	1.25
AGTTCC	2.11
TCCGGC	2.18
TCATTT	1.36
CCCTGG	1.11
ACCGGA	3.2
AGCTAC	1.22
CTGCTA	1.5
CCTATC	1.18
CCGATC	1.24
CCTATT	1.64
ATCAAT	1.02
ATTAAT	1.2
TCTCAA	1.19
CTGAAT	1.31
TGCAAC	1.36
TTACCG	1.24
